Some of the results follow. Repeats are few or missing, and single values can be far off.
Test system: Trichuris muris adult worms
Assay: median motility score (Paragon pixel variance) of adult worms (arbitrary units); higher = more motile worms
Conditions: 24 h

SMILES	median motility score (20 µM)	median motility score (50 µM)	median motility score (100 µM)
CCN(CC)CC(=O)Nc1c(C)cccc1C [lidocaine]	760	2720	3180
O=C(O)COCCN1CCN(C(c2ccccc2)c2ccc(Cl)cc2)CC1 (stereo not drawn) [cetirizine]	2400	3390	4520
Clc1ccc(CCC(Cn2ccnc2)Sc2c(Cl)cccc2Cl)cc1.O=[N+]([O-])O (stereo not drawn) [butoconazole nitrate]	0	2070	0
Cc1cccc(C)c1NC(=O)C1CCCCN1C (stereo not drawn) [mepivacaine]	3830	4510	2340
C=C[C@H]1CN2CC[C@H]1C[C@H]2[C@H](O)c1ccnc2ccc(OC)cc12 [quinine]	105	5270	2640
CC(C)NCC(O)COc1ccc(CC(N)=O)cc1 (stereo not drawn) [atenolol]	1990	3760	3780
CN(C)CC/C=C1\c2ccccc2COc2ccccc21.Cl [doxepin hydrochloride]	2550	5300	4490
NS(=O)(=O)c1cc2c(cc1Cl)N=CNS2(=O)=O [chlorothiazide]	175	3200	2780
NS(=O)(=O)c1cc2c(cc1C(F)(F)F)NC(Cc1ccccc1)NS2(=O)=O (stereo not drawn) [bendroflumethiazide]	352	4140	3940
COC(=O)C1=C(C)NC(C)=C(C(=O)OC(C)C)C1c1cccc2nonc12 (stereo not drawn) [isradipine]	32	2400	1330
Cc1nccn1CC1CCc2c(c3ccccc3n2C)C1=O (stereo not drawn) [ondansetron]	126	4900	2660
CCCCN1CCCCC1C(=O)Nc1c(C)cccc1C (stereo not drawn) [bupivacaine]	1890	3650	3390
CN(C)CCC(c1ccccc1)c1ccccn1 (stereo not drawn) [pheniramine]	561	2340	3110
Cl.Cl.OCCOCCN1CCN(C(c2ccccc2)c2ccc(Cl)cc2)CC1 (stereo not drawn) [hydroxyzine dihydrochloride]	3900	4030	3330
COc1cc2nc(N3CCN(C(=O)c4ccco4)CC3)nc(N)c2cc1OC [prazosin]	20	503	20
CCCCOCCOCCOCc1cc2c(cc1CCC)OCO2 [piperonyl butoxide]	1030	3720	2110
CNCCC(Oc1ccc(C(F)(F)F)cc1)c1ccccc1.Cl (stereo not drawn) [fluoxetine hydrochloride]	4770	4520	3980
CC(C)NCC(O)COc1ccc(COCCOC(C)C)cc1 (stereo not drawn) [bisoprolol]	1340	1590	1910
CC(C)[C@H]1CC[C@H](C(=O)N[C@H](Cc2ccccc2)C(=O)O)CC1 [nateglinide]	1690	1030	2140
CN(C)CC(c1ccc(O)cc1)C1(O)CCCCC1 (stereo not drawn) [desvenlafaxine]	2780	2890	4870
COc1cc(C(=O)NCc2ccc(OCCN(C)C)cc2)cc(OC)c1OC [trimethobenzamide]	5080	2480	4340

SMILES	median motility score (20 µM)	median motility score (50 µM)	median motility score (100 µM)
Cl.OC(CCN1CCCCC1)(c1ccccc1)C1CCCCC1 (stereo not drawn) [trihexyphenidyl hydrochloride]	2030	4410	2970
CN(C)CCC=C1c2ccccc2C=Cc2ccccc21.Cl [cyclobenzaprine hydrochloride]	4270	3570	1300
COC(=O)C1=C(C)NC(C)=C(C(=O)OCC(C)C)C1c1ccccc1[N+](=O)[O-] (stereo not drawn) [nisoldipine]	775	2110	1120
CCCC(=O)Nc1ccc(OCC(O)CNC(C)C)c(C(C)=O)c1 (stereo not drawn) [acebutolol]	2490	2740	2030
CN1CCCC(n2nc(Cc3ccc(Cl)cc3)c3ccccc3c2=O)CC1.Cl (stereo not drawn) [azelastine hydrochloride]	2960	2690	0
Cc1ccccc1N1C(=O)c2cc(S(N)(=O)=O)c(Cl)cc2NC1C (stereo not drawn) [metolazone]	3380	1310	3650
OC(Cn1cncn1)(Cn1cncn1)c1ccc(F)cc1F [fluconazole]	1140	4460	3500
CN1CCC(=C2c3ccccc3C=Cc3ccccc32)CC1 [cyproheptadine]	3340	0	0
CN(C)CCOC(C)(c1ccccc1)c1ccccn1 (stereo not drawn) [doxylamine]	4480	4420	3820
CCOC(=O)c1ccc(N)cc1 [benzocaine]	3510	2560	1540
Cl.OC(CCN1CCCC1)(c1ccccc1)C1CCCCC1 (stereo not drawn) [procyclidine hydrochloride]	2080	5100	3520
CN(C)CCOC(c1ccc(Cl)cc1)c1ccccn1 (stereo not drawn) [carbinoxamine]	703	2760	508
CC1Cc2ccccc2N1NC(=O)c1ccc(Cl)c(S(N)(=O)=O)c1 (stereo not drawn) [indapamide]	3860	2660	2280
CN(C)CCC(c1ccc(Cl)cc1)c1ccccn1 (stereo not drawn) [chlorpheniramine]	2870	2230	4260
CCCCCCCCCCCCOS(=O)(=O)[O-].[Na+] [sodium lauryl sulfate]	2890	4860	2290
CN(C)CC/C=C1/c2ccccc2COc2ccc(CC(=O)O)cc21 [olopatadine]	2840	1290	2220
CN1CCN2c3ncccc3Cc3ccccc3C2C1 (stereo not drawn) [mirtazapine]	5520	4510	4550
Fc1ccc(C(c2ccc(F)cc2)N2CCN(C/C=C/c3ccccc3)CC2)cc1 [flunarizine]	4280	870	0
CCCCc1ncc(/C=C(\Cc2cccs2)C(=O)O)n1Cc1ccc(C(=O)O)cc1 [eprosartan]	311	3460	2830
Cc1ccccc1C(OCCN(C)C)c1ccccc1.Cl (stereo not drawn) [orphenadrine hydrochloride]	4580	2100	2680

Complete entries, quoted from the list.
CN1CCN2c3ncccc3Cc3ccccc3C2C1 (stereo not drawn) [mirtazapine] is entered as median motility score (20 µM): 5520; median motility score (50 µM): 4510; median motility score (100 µM): 4550
OC(Cn1cncn1)(Cn1cncn1)c1ccc(F)cc1F [fluconazole] is entered as median motility score (20 µM): 1140; median motility score (50 µM): 4460; median motility score (100 µM): 3500

Source: the supplement of paper PMC10503962
